Test results as given in article PMC5360572.
Results are given in words; binding and its absence hold for the method and conditions named. Some entries that bind do so weakly or less than the wild type.

Amino acid sequences for entries named in this document (tags omitted). A change or cut given only in a name is not applied to a line headed by its entry. Chains listed by the source or under a name are the forms on record and can include a tag or linker. Residues count along the entry.
UniProt Q9NZQ7, residues 19-239: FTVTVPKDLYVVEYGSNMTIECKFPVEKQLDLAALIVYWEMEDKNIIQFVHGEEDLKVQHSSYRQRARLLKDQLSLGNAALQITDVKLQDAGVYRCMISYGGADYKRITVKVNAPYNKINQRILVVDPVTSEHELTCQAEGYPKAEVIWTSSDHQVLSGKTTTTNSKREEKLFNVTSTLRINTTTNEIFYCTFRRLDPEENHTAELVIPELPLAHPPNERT
mouse PD-1 A132L mutant (soluble, monomeric) (Q02242, form named): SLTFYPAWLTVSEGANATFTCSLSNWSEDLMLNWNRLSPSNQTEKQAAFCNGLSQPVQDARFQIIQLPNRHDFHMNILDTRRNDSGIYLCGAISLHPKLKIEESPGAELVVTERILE

Target: human PD-L1 as crystallised with mouse PD-1 A132L (human) (UniProt Q9NZQ7)
Assay: crystal structure; data not shown; complexes of the mouse analog of A132L PD-1 with human PD-L1 (PDB 3SBW) and mouse PD-L2 (PDB 3RNK, 3BP6); both purified

**Q.** With “mouse PD-1 A132L mutant (soluble, monomeric) (from UniProt Q02242 34-150) (domain or fragment)” as the substance, how does the binding read?
**A.** The binding was “binds”.
